Test results as given in PMC6530869.
Results are given in words; binding and its absence hold for the method and conditions named. Some binding calls cover weakened binding; strength is not graded here. Sequences can lack the tags named with a protein.

Target: LovK (fusion to the T25 or T18c fragment of adenylate cyclase) (Caulobacter crescentus) (UniProt Q9ABE3)
Assay: two-hybrid; bacterial two-hybrid in E. coli BTH101; kinases fused to the C-terminus of the T25 and T18c fragments of adenylate cyclase; colour of spots on LB agar with X-gal and 0.5 mM IPTG after 36 hours at 30°C

B1: LovK (fusion to the T25 or T18c fragment of adenylate cyclase) (protein, UniProt Q9ABE3 1-368)
chain: MEDYSESRRAGERLAAGHGVDDPFAAAISATRMAMIVADATQPDIPIIFANDAFLRLTGYARDEVIGRNCRFLQGPDTDPKAIQAVRDALAAGEDVAVDLLNYRKDGSPFWNALNMSPVRNDAGQLVYFFGSQVDVTDKKVVELRARDHSDGLQQMVEERTRELTEALKQKTALLHEVDHRVKNNLQLISSLLLLQNRRVPDPAVKASLRGMLGRVNAIATVHRRLFQSEDVERFDVSAFIRDMVADLMGSAMRDDIRVELDLERVEIPAAKAAPLALVVNELLTNALRHGFPEGRGGRIFVGLSRLNGDFRIEITDDGVGQDRETRASGFGLTIVQLLCQQLKAKWETTDAEPGTRVVVLLPINGTQ
  binding: binds
